Source: US20120309812A1 (SYNGENTA CROP PROTECTION LLC, priority 2010, published 2012)
Some results were stated once for a whole list of compounds, not compound by compound.

Tests used:
Format in all cases: in vivo
[1] = system: Spodoptera littoralis; assay: Spodoptera littoralis (Egyptian cotton leafworm) cotton leaf disc spray test; details: application rate 200 ppm, sprayed cotton leaf discs, L1 larvae, mortality, feeding behavior and growth regulation 3 DAT
[2] = system: Heliothis virescens; assay: Heliothis virescens (Tobacco budworm) egg/artificial diet test; details: application rate 200 ppm (concentration in well 18 ppm), eggs on artificial diet, egg mortality, larval mortality and growth regulation after 4 days
[3] = system: Plutella xylostella; assay: Plutella xylostella (Diamond back moth) artificial diet test; details: application rate 200 ppm (concentration in well 18 ppm), L2 larvae, larval mortality and growth regulation after 6 days
[4] = system: Diabrotica balteata; assay: Diabrotica balteata (Corn root worm) artificial diet test; details: application rate 200 ppm (concentration in well 18 ppm), L2 larvae, larval mortality and growth regulation after 5 days
[5] = system: Thrips tabaci; assay: Thrips tabaci (Onion thrips) sunflower leaf disc spray test; details: application rate 200 ppm, sprayed sunflower leaf discs, population of mixed ages, mortality after 7 days

Cc1cc(C(F)(c2ccc(C(F)(F)F)cc2)C(F)(F)F)cc(C)c1NC(=O)c1cccc(NC(=O)c2cccc(F)c2F)c1 (centres unmarked) [A2]
at least 80%: control of Spodoptera littoralis [1] | control of Heliothis virescens [2] | control of Plutella xylostella [3] | control of Diabrotica balteata [4] | control of Thrips tabaci [5]
